{"sequences": {"note": "The chains behind the UniProt entries cited, without tags or fusion partners.", "UniProt P63096": "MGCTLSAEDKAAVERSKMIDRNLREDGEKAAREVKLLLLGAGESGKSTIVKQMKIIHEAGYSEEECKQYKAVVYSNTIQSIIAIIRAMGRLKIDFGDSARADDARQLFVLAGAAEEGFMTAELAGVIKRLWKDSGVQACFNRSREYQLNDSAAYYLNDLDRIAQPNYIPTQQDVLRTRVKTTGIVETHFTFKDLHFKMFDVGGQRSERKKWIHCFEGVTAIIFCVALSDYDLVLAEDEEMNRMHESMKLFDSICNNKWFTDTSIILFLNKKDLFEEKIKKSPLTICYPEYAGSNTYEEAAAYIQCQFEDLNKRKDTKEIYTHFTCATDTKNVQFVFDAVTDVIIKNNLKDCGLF", "UniProt P49407": "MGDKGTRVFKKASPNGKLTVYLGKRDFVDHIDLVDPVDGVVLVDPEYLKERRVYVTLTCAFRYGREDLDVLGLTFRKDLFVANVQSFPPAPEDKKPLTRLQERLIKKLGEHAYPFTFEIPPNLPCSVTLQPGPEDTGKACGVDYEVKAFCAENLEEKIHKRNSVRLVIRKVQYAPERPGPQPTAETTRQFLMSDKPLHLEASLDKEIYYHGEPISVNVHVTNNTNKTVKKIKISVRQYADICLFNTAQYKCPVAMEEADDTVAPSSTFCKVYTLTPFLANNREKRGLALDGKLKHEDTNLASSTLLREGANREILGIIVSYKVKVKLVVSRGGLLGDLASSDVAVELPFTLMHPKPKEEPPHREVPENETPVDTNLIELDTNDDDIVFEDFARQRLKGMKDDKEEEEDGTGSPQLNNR"}, "source": "paper PMC8850301", "molecular_target": "LgBiT-Gαi1 (UniProt P63096)", "assay": "split reporter; NanoBiT complementation in live Ishikawa cells in suspension, 48 h after transfection with SmBiT-βAr1 and LgBiT-Gαi1; furimazine substrate; basal read for 2 min, then FSH (10 nM) added and read over 16 min, once every 17 s; ligand-induced changes as percent of basal", "note": "These are yes or no findings as the source states them, for the method shown. In cells and extracts the contact can be indirect. Some entries that bind do so weakly or less than the wild type.", "data": [{"substance": "SmBiT-β-Arrestin 1 (from UniProt P49407 1-418)", "values": [{"measurement": "binding", "result": "binds"}]}]}
